The text below walks through data of PMC7939464.

The chains behind the UniProt entries cited, without tags or fusion partners.
UniProt Q96PU5: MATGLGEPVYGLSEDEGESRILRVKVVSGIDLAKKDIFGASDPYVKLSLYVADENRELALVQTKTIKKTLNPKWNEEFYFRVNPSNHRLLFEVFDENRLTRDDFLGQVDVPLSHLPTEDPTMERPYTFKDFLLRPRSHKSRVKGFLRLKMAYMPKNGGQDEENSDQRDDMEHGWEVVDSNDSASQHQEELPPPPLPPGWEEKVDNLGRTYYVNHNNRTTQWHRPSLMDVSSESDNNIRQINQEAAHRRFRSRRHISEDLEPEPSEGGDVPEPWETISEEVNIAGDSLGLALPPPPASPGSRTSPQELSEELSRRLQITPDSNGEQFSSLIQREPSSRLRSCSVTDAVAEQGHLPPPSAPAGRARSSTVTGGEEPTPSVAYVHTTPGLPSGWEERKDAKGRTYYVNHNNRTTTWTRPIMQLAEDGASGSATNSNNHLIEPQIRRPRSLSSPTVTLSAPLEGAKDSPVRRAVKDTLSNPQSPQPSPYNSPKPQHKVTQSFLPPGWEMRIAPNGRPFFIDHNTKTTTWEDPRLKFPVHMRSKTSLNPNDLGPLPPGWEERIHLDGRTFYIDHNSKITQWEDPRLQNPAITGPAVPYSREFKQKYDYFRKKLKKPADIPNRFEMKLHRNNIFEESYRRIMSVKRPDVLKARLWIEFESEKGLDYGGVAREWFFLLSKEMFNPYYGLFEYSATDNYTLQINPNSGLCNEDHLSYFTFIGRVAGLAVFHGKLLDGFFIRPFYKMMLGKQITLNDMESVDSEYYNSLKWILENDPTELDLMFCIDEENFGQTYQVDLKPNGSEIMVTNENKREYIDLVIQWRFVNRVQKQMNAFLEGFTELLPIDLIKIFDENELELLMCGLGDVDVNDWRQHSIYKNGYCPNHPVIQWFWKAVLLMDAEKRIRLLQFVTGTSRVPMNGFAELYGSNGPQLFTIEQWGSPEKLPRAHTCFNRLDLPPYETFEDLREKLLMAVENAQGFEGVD
UniProt Q99732: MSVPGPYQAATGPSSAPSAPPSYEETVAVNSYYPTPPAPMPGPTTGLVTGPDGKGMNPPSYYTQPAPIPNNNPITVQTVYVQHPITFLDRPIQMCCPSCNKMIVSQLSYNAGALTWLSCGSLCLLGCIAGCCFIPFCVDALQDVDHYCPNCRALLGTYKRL

Experiment [1] deals with V5-tagged Nav1.5 (voltage-gated sodium channel) (UniProt Q14524). Put plainly: co-IP; V5 antiserum IP of extracts of HEK cells stably expressing V5-tagged Nav1.5, transfected with HA-tagged LITAF or empty vector; Western blot (n = 3).
For experiment [2], the target named is FLAG-tagged NEDD4-2 (neural precursor cell-expressed developmentally down-regulated 4 type 2) (UniProt Q96PU5). Kind of experiment: co-IP; FLAG antibody IP of total lysates of stable HEK cells transiently expressing HA-tagged LITAF and FLAG-tagged NEDD4-2, or FLAG-tagged NEDD4-2 alone, 48 h; Western blot (n = 3).

These are yes or no findings as the source states them, for the method shown. In cells and extracts the contact can be indirect. Some results given as binding are weak or reduced against the parent protein; the word gives no strength.

Consider “HA-tagged LITAF (lipopolysaccharide-induced tumor necrosis factor-alpha factor) (from UniProt Q99732 1-161)”, for which the binding entry in experiment [1] and in experiment [2] was “binds” throughout.
